Experimental data reported in the supplement of paper PMC3334620.
Over roughly 33,000 sequences, “E-score (-0.5 to 0.5)” has its median near -0.0034; the highest 2% begin near 0.25. The list shows a part of the results.

target: T1, Yap3 (UniProt P38749); experiment: PBM E-score (8-mer binding enrichment) (E-score (-0.5 to 0.5)); higher = stronger / more preferred TF binding; conditions: protein concentration: 100 nM; construct: GST-full length
T1 sequence: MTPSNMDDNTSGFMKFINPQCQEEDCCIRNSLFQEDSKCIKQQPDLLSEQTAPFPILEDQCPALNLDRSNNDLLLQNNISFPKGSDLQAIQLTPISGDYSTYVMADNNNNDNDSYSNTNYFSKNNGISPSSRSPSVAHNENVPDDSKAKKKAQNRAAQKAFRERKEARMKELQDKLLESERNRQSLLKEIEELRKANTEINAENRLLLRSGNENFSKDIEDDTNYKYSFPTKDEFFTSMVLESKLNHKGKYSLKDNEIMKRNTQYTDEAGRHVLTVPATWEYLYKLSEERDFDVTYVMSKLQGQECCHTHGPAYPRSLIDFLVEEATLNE
Method in brief: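 For each ungapped eight-base word taken together with its reverse complement, the Universal PBM Analysis Suite assigned an E-score. Binding data came from GST-tagged yeast transcription factors, applied at about 100-200 nM, on universal all-10-mer Agilent arrays made double-stranded by primer extension. Fluorescent anti-GST marked bound protein, and scans were normalised with masliner.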

Sequence	PBM E-score
ACTCCATC	0.0933
AAGTTAGG	-0.0298
ACTCGTCA	0.0393
CTTAGGGA	-0.2
AACTTTGT	0.129
CTTCTGGC	-0.158
GGTTATCA	0.0603
ATTCCCCA	0.108
CAGTAACC	0.0594
CACGGGCA	-0.101
CCTAGTAC	0.0383
CTGCACCA	-0.171
CCAGGCAA	0.0306
CCTGGACA	-0.206
GTGGTGAA	-0.0976
TGCAACCA	-0.0225
CTCATGCC	-0.0546
ACGACGGG	-0.0871
CTTTTGTA	0.189
AGCGAGAC	-0.201
CACGGGGC	-0.182
CGCCGTGA	-0.14
AGAGGTCA	-0.0826
CGCCATGC	-0.168
GGGTAACA	-0.0006

Sequence	PBM E-score
CACGCGTC	0.154
ATATAATA	0.299
AGACCCTC	-0.277
CCCTTAAC	-0.203
ATCACTTC	0.172
CATTCACG	-0.0375
GGTGTGGA	-0.00324
GGACCTAA	0.0689
GGGGGACA	-0.139
CGTGGAAG	0.13
CGCCTTAA	0.0344
CTATAGAC	-0.101
GTGTAGAA	-0.0487
CGACGAAG	-0.0428
AGCTTGGG	-0.0575
GGTTTGCA	-0.0541
CCCTAGCA	-0.193
GCTCTGCC	-0.236
ACTACCTA	0.0156
AACCATTG	0.00934
ATCCTTGC	-0.091
CAGAATGA	0.105
GAAATGAA	0.289
CCAGAACC	-0.0461
AATTACCC	0.107

Sequence	PBM E-score
CCAAAGCA	0.0424
CCTCTTAC	0.0115
TGGCTCAA	-0.167
AATCTGAT	-0.00633
AGTTCCTG	-0.15
CATTGCGA	0.0958
CGTTCAAA	-0.0545
GGATTCCC	-0.307
CATTGAGA	-0.0633
AGCAAACA	0.183
CCAGGTCA	-0.233
CAGCGTCA	-0.163
GGGTTAAC	-0.0107
CGTCGGAA	0.133
AAATGAAA	0.324
AGGCTTAA	0.0671
CGACTCGA	-0.0784
CCACTTGC	-0.017
ACCCATCT	0.0208
CAAGAACA	-0.0451
ATCTCCGC	-0.0256
GGTATGTA	0.0396
GAGATGGA	-0.178
CTCCGAAA	-0.16
ACGAGGGA	0.00788

Shown bar-delimited: part of the list above
Sequence | PBM E-score
CCAAAGCA | 0.0424
CCAGGTCA | -0.233
CAGCGTCA | -0.163
AAATGAAA | 0.324
CCACTTGC | -0.017
CAAGAACA | -0.0451

(continued)

Sequence	PBM E-score
CGCAAAGC	-0.105
AGTTTAAG	0.0273
TTAAGCAA	0.0488
CTGAGACA	-0.0945
GATTAGGA	0.0229
CTCAGGAA	-0.184
CTCCTGGA	-0.222
GCGCTCGA	-0.0438
TAATTCTA	0.21
ACGTCGGG	-0.207
GCCGGACA	-0.0331
CCGCGTTA	0.0529
ATCCAGTG	0.0972
GGCCGCCA	-0.216
CCATCTCC	0.073
AGCTCTTA	-0.0963
CTAGATGC	-0.124
AGGATTCC	-0.244
GACTGTGA	0.0125
AGCCCATA	-0.0674
ATGTTATA	0.0586
ATAGGCAA	-0.0278
ACTCGCTC	0.0802
AGGAACCT	0.1
CTCTCGCC	-0.195

Sequence	PBM E-score
GGCTGAAA	0.0542
AGATCGAA	0.07
ATGTCGGA	-0.0348
GAATTACA	0.109
GCGGGAAA	0.0866
CCCATCGC	-0.0437
GTTTCTTA	0.118
CGTGACCC	-0.189
AGTGGCCG	-0.119
CCCTGAGG	-0.224
CCATAATA	0.214
CAGTGATC	-0.0583
ATTCATCC	0.207
AAAAGGTT	-0.0346
AGATAGTC	-0.197
CGTATTAG	0.152
TCTAGAGA	-0.291
GAGTGTGA	0.139
GCAGCGGC	-0.238
AAAGCCGC	-0.0895
CGGCCAAC	-0.0886
ATCCCTAA	-0.174
CGGAGGGA	-0.233
GAGAAACA	0.218
CCGTTGCG	-0.0568

Sequence	PBM E-score
CACACGTA	-0.0208
CAATGAGA	-0.034
ACGGTTAT	0.113
AGGTAGTG	-0.011
AAATTGGA	0.214
ACCAGGTA	-0.27
AACGATTG	0.107
CCTTGGAG	-0.0876
ACCGTCCT	0.0138
CGTCGGTA	-0.178
AGTCACCC	-0.079
GAATAAAA	0.178
ACCAGCGC	0.0291
GCTTGATA	0.1
TCCTAAGA	-0.15
GTTGTAAA	-0.11
ATATGATG	0.171
AGGGCAGC	-0.0608
AAACATGG	0.0297
ATGCACAA	0.152
GGACTCTA	-0.222
ACGGCGAG	0.12
AACGGGAA	0.0544
GCATACAA	0.188
GCATCCCC	-0.134

Sequence	PBM E-score
ACGTGTAG	-0.166
ACCACGTG	0.0326
TCAAATGA	0.0135
AATGAAGT	0.177
ATATCGGG	0.143
CTCATAGA	0.0689
ACAAAGTG	0.0611
TATACTGA	0.295
ACAATCGA	-0.00279
ACGCGCGG	0.16
CACGCCGG	-0.0727
TGAAAAAA	0.197
ATTATTAA	0.378
GCCATCGC	-0.205
ATGAGGAC	0.0113
AGATAATG	0.196
CGTTTGCC	0.0367
TGTGATAA	0.205
AAGTGCAA	0.0907
ATGAATAC	0.163
TCGCCCAA	-0.206
CAACCGGG	-0.218
